# Experimental data from PubChem BioAssay (EPA / NIEHS).
# The chains behind the UniProt entries cited, without tags or fusion partners. Where a name states a change or a piece, a line headed by the entry shows the natural chain unless it says otherwise.
# UniProt P10275: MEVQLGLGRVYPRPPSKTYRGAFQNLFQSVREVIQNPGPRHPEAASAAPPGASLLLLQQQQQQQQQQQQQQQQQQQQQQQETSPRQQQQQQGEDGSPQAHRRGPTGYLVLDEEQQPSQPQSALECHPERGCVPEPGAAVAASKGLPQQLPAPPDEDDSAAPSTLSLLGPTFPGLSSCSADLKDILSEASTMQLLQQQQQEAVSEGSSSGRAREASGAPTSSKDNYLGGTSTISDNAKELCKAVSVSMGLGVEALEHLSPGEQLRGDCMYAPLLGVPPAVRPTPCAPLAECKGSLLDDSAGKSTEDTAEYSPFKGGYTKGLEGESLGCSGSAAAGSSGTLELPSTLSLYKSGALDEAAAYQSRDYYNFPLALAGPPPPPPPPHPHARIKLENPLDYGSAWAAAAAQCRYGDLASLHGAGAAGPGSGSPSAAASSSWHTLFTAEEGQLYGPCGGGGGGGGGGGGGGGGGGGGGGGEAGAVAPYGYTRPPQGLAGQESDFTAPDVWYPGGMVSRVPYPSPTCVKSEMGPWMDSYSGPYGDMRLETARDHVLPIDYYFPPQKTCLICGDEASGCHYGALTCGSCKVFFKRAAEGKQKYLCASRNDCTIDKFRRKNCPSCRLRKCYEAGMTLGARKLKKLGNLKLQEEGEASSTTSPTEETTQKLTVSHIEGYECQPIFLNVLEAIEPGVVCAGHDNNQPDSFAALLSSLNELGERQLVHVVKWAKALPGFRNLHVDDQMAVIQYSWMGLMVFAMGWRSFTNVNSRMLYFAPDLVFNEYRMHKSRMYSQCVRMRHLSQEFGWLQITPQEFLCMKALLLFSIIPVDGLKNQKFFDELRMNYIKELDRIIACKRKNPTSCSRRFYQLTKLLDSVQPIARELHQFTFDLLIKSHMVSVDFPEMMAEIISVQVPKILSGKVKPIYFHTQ
# Inconclusive results, whose numbers are uncertain, are shown with a selection of clear calls. A potency beside an inconclusive call is a rough fit, not a confirmed value. Activity calls are given as the source filed them. The calls were made as follows: active = hit-call score of the fitted dose curve at least 0.9, where 1 is the maximum; inconclusive = response in the unintended direction; inactive = score below 0.9.
# Columns and labels:
# [1] = ACEA_AR_antagonist_AUC_viability: ACEA Biosciences xCELLigence Real-Time Cell Analysis on Androgen Receptor Antagonism for Viability (AID 2283776);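 also: area under impedance growth curve at 80 h after dosing as viability; hits lower the growth signal relative to DMSO meaning cytotoxicity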
# In short: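 22Rv1 human prostate cancer cells were seeded on electrode plates, monitored overnight, then exposed to eight 1:4 dilutions from 100 uM final. Impedance-based growth kinetics at 80 h gave an AUC viability endpoint normalized to DMSO.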
# [2] = ACEA_ER_AUC_viability: ACEA Biosciences xCELLigence Real-Time Cell Analysis on Estrogen Receptor Agonism for Viability (AID 2283782);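 also: hit means loss of impedance signal meaning reduced cell growth or viability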
# In short: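 Continuous-exposure impedance cell analysis uses T-47D cells in charcoal-stripped serum, eight 1:4 dilutions topping at 100 uM final, biological duplicate. Area under the growth curve at 80 h is fitted against DMSO baseline.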
# AR (gene 367) = AR (gene 367) (UniProt P10275); assay: ACEA_AR_agonist_80hr: ACEA Biosciences xCELLigence Real-Time Cell Analysis on Androgen Receptor Agonism for Proliferation (AID 2283783);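 also: hits increase impedance growth signal above DMSO baseline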
# In short: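 Real-time cell-growth kinetics were recorded by electrode impedance in 22Rv1 cells exposed to test chemicals up to 100 uM final; the 80 h timepoint served as the readout, fitted upward relative to DMSO controls, in biological duplicate.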
# [3] = STM_H9_NormalizedViability: Cytotoxicity Assessment at 120 hours in the Stemina devTOX quickPredict H9 human embryonic stem cell (hESC)-based Assay (AID 2283784)
# In short: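 CellTiter-Fluor RFU, background-subtracted, expressed relative to 0.1% DMSO neutral control by plate. Pluripotent H9 cells; treatment with daily re-dosing. Plates carried 1uM methotrexate (positive) and 5 nM methotrexate (negative) references.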
structure (smiles),measurement,setting,value
CCCC[N+](C)(CCCC)CCCC,AC50,[1],inconclusive: 0.209 µM
same,outcome,[2],inactive
O=C(O)/C=C\C(=O)O,AC50,[1],inconclusive: 0.181 µM
same,AC50,[2],inconclusive: 50 µM
CCCCCCOc1ccc(O)cc1,AC50,[1],active: 10.4 µM
same,AC50,[2],active: 67.3 µM
same,AC50,AR (gene 367),inconclusive: 16.6 µM
CCCCCCCCCCCCN1CCOCC1,AC50,[1],inconclusive: 0.177 µM
same,AC50,[2],active: 80.3 µM
CC(C)OC=O,AC50,[1],inconclusive: 0.0343 µM
same,AC50,[2],inconclusive: 50 µM
CCCCCCCCCCCCC[N+](C)(C)Cc1ccccc1,AC50,[1],active: 3.31 µM
same,AC50,[2],active: 7.37 µM
same,AC50,AR (gene 367),inconclusive: 16.6 µM
CCCCCC[C@@H](O)C/C=C\CCCCCCCC(=O)O,outcome,[2],inactive
CCCCCCCCCCCCCCCC(=O)O,AC50,[1],inconclusive: 0.3 µM
CCCCCCCCCCC,AC50,[1],inconclusive: 0.00913 µM
same,AC50,[2],inconclusive: 0.139 µM
same,AC50,AR (gene 367),inconclusive: 50 µM
CCCCC(CC)COC(=O)/C=C\C(=O)OCC(CC)CCCC (stereo not drawn),AC50,[1],inconclusive: 1.39 µM
same,AC50,AR (gene 367),inconclusive: 0.617 µM
CCC(=O)O[C@@H]1C[C@H]2CC[C@]1(C)C2(C)C,AC50,[1],inconclusive: 0.449 µM
same,AC50,[2],inconclusive: 0.0348 µM
O=S(=O)(O)c1ccc(N=Nc2c(O)ccc3cc(S(=O)(=O)O)ccc23)cc1,AC50,[1],inconclusive: 0.000642 µM
same,AC50,[2],inconclusive: 10.6 µM
CC(C)COC(=O)CC(C(=O)OCC(C)C)S(=O)(=O)O (stereo not drawn),AC50,[1],inconclusive: 0.4 µM
CC(C)=CCC/C(C)=C/CO,AC50,[1],active: 25.6 µM
same,AC50,[2],inconclusive: 0.00505 µM
CCCCC(C=O)CC (stereo not drawn),AC50,[1],inconclusive: 0.333 µM
same,outcome,[2],inactive
C=C(C)C(=O)OCC(F)(F)C(F)(F)C(F)(F)C(F)F,AC50,[2],inconclusive: 75 µM
CCCCCCCCCCCCN,AC50,[1],inconclusive: 16.6 µM
same,AC50,[2],active: 66.3 µM
NC(=O)c1cccnc1,AC50,[1],inconclusive: 11.6 µM
same,AC50,[2],inconclusive: 52.5 µM
CC1(C)NC(=O)NC1=O,outcome,[1],inactive
same,AC50,[2],inconclusive: 50.5 µM
O=C[C@@H](O)[C@H](O)[C@H](O)CO,outcome,[1],inactive
same,AC50,AR (gene 367),inconclusive: 0.028 µM
CCCCCCCCCC(=O)OC,AC50,[1],inconclusive: 5.47 µM
same,AC50,[2],inconclusive: 50 µM
Clc1cc(Cl)c(Cl)cc1Cl,outcome,[1],inactive
same,outcome,[2],inactive
CCOc1ccccc1O,AC50,[1],inconclusive: 0.0119 µM
same,outcome,[2],inactive
COc1cc(OC)c2ccc(=O)oc2c1,AC50,[1],active: 0.25 µM
same,AC50,[2],inconclusive: 87.6 µM
same,AC50,AR (gene 367),inconclusive: 0.0164 µM
CC1=C(/C=C/C(C)=C/C=C/C(C)=C/C(=O)O)C(C)(C)CCC1,AC50,[1],active: 78.6 µM
same,AC50,[2],inconclusive: 0.183 µM
same,AC50,[3],inconclusive: 1.26 µM
O=C1NC(=O)C(c2ccccc2)(c2ccccc2)N1,AC50,[1],active: 28.7 µM
same,AC50,[3],inconclusive: 0.0523 µM
CN(C)Cc1cc(CN(C)C)c(O)c(CN(C)C)c1,AC50,[1],inconclusive: 0.666 µM
same,AC50,[2],inconclusive: 0.0142 µM
COCC(C)OCC(C)O (stereo not drawn),AC50,[1],inconclusive: 0.00061 µM
same,AC50,[2],inconclusive: 50 µM
same,AC50,AR (gene 367),inconclusive: 50 µM
CC[C@H]1OC(=O)[C@H](C)[C@@H](O[C@H]2C[C@@](C)(OC)[C@@H](O)[C@H](C)O2)[C@H](C)[C@@H](O[C@@H]2O[C@H](C)C[C@H](N(C)C)[C@H]2O)[C@](C)(O)C[C@@H](C)C(=O)[C@H](C)[C@@H](O)[C@]1(C)O,AC50,[1],inconclusive: 0.0726 µM
same,AC50,[2],inconclusive: 0.565 µM
CCCCCCCCCOS(=O)(=O)O,outcome,[1],inactive
same,AC50,[2],inconclusive: 50 µM
COc1c(Cl)c(Cl)c(Cl)c(Cl)c1Cl,AC50,[1],inconclusive: 0.0138 µM
same,AC50,[2],inconclusive: 20.8 µM
CCOC(=O)c1ccccc1C,AC50,[2],inconclusive: 50 µM
CCCCCCCCCCCC(=O)OC,outcome,[1],inactive
same,AC50,[2],inconclusive: 83.2 µM
CCO[Si](CC)(OCC)OCC,AC50,[1],inconclusive: 0.0823 µM
same,outcome,[2],inactive
same,AC50,AR (gene 367),inconclusive: 4.41 µM
CCCCCCOC(=O)CCCCC(=O)OCCCCCC,AC50,[2],inconclusive: 50 µM
COC(=O)[C@]1(C)CCC[C@@]2(C)[C@H]1CC=C1C=C(C(C)C)CC[C@@H]12,AC50,[1],inconclusive: 0.276 µM
same,AC50,[2],active: 73.3 µM
CCOc1cccc(-n2cc(C(=O)N3CCN(c4cc(C(=O)O)c5ccccc5c4)CC3)nc2-c2ccc(C)cc2)c1,AC50,[1],active: 11.5 µM
same,outcome,[2],inactive
same,AC50,AR (gene 367),inconclusive: 50 µM

# As a working copy, part of the list above.
structure (smiles),measurement,setting,value
NC(=O)c1cccnc1,AC50,[1],inconclusive: 11.6 µM
same,AC50,[2],inconclusive: 52.5 µM

# Part of the list above, tab-delimited.
structure (smiles)	measurement	setting	value
CCCCCCOc1ccc(O)cc1	AC50	[2]	active: 67.3 µM
same	AC50	AR (gene 367)	inconclusive: 16.6 µM
